In US11634451B2, “Method for the site-specific enzymatic labelling of nucleic acids in vitro by incorporation of unnatural nucleotides” (The Scripps Research Institute, priority 2013, dated 2023):
Some of these results come from one statement about several compounds together. At least one compound was matched to its structure with a doubt left.

The compounds below were run on OneTaq polymerase (assay: PCR-based screen and amplification of DNA containing unnatural base pairs, OneTaq (Example 1)). Settings: D6 template 10 pg, 24 cycles, 10 s extension.
Assay type: biochemical
Procedure: The triphosphates of the 6 group were prepared from the previously reported nucleosides (Kubelka, T., Slavetinska, L., Eigner, V. and Hocek, M. Synthesis of 2,6-disubstituted pyridin-3-yl C-2′-deoxyribonucleosides through chemoselective transformations of bromo-chloropyridine C-nucleosides. Org. Biomol. Chem., 11, 4702-4718) according to Ludwig, J. and Eckstein, F. Rapid and efficient synthesis of nucleoside 5′-0-(1-thiotriphosphates), 5′-triphosphates and 2′,3′-cyclophosphorothioates using 2-chloro-4H-1,3,2-benzodioxaphosphorin-4-one. J. Org. Chem., 54, 631-635. The purity of all other triphosphates was confirmed by MALDI-TOF and UV-VIS. Taq and OneTaq DNA polymerases were purchased from New England Biolabs (Ipswich, Mass.). A mixture of dNTPs was purchased from Fermentas (Glen Burnie, Md.). SYBR Green I Nucleic Acid Gel Stain (10,000×) was purchased from Life Technologies (Carlsbad, Calif.). The synthesis of the DNA templates, D8 (Malyshev, D. A., Dhami, K., Quach, H. T., Lavergne, T., Ordoukhanian, P., Torkamani, A. and Romesberg, F. E. Efficient and sequence-independent replication of DNA containing a third base pair establishes a functional six-letter genetic alphabet. Proc. Natl. Acad. Sci. USA, 109, 12005-12010), used for screening rounds 1-5, and D6 (Malyshev, D. A., Seo, Y. J., Ordoukhanian, P. and Romesberg, F. E. PCR with an expanded genetic alphabet. J. Am. Chem. Soc., 131, 14620-14621), used for all other amplifications, was described previously. Sanger sequencing was carried out as described previously (Malyshev, D. A., Dhami, K., Quach, H. T., Lavergne, T., Ordoukhanian, P., Torkamani, A. and Romesberg, F. E. Efficient and sequence-independent replication of DNA containing a third base pair establishes a functional six-letter genetic alphabet. Proc. Natl. Acad. Sci. USA, 109, 12005-12010). Raw Sanger sequencing traces were used to determine the percent retention of the unnatural base pairs, which was converted to fidelity per doubling, as described (Malyshev, D. A., Dhami, K., Quach, H. T., Lavergne, T., Ordoukhanian, P., Torkamani, A. and Romesberg, F. E. Efficient and sequence-independent replication of DNA containing a third base pair establishes a functional six-letter genetic alphabet. Proc. Natl. Acad. Sci. USA, 109, 12005-12010; Malyshev, D. A., Seo, Y. J., Ordoukhanian, P. and Romesberg, F. E. PCR with an expanded genetic alphabet. J. Am. Chem. Soc., 131, 14620-14621).
All PCR amplifications were performed in a CFX Connect Real-Time PCR Detection System (Bio-Rad), in a total volume of 25 μL using the following conditions: 1× OneTaq reaction buffer, 0.5× Sybr Green I, MgSO4 adjusted to 4.0 mM, 0.2 mM of each dNTP, 50 μM of each unnatural triphosphate, […] of Primer1 and Primer2 (See Table 2), and 0.02 U/μl of the DNA polymerase. Other conditions specific for each round of screening are described in Table 3. Amplified products were purified using DNA Clean and Concentrator-5 spin columns from Zymo Research (Irvine, Calif.). After purification, the PCR products were sequenced on a 3730 DNA Analyzer (Applied Biosystems) to determine the retention of the unnatural base pair as described below. Fidelity was characterized from unnatural base pair (UBP) retention as determined by sequencing with Primer1 on a 3730 DNA Analyzer (Applied Biosystems).
Specific PCR assay conditions. PCR with the most promising UBPs was carried out with the conditions as described in Table 3. PCR products were further purified on […] gels, followed by single band excision and subsequent clean up using the Zymo Research Zymoclean Gel DNA Recovery Kit. After elution with 20 μl of water, the DNA concentration was measured using fluorescent dye binding (Quant-iT dsDNA HS Assay kit, Life Technologies), and purified amplicons were sequenced in triplicate with both Primer1 and Primer2 to determine UBP retention and thus amplification fidelity. […]

SMILES	UBP retention, sixth round of screening [%]
C#Cc1cc(OC)c([C@H]2C[C@H](O)[C@@H](COP(=O)(O)OP(=O)(O)OP(=O)(O)O)O2)cc1F.O=P(O)(O)OP(=O)(O)OP(=O)(O)OC[C@H]1O[C@@H](n2cc(F)c3ccsc3c2=S)C[C@@H]1O [FTPT3-FEMO]	> 95
COc1cc(I)ccc1[C@H]1C[C@H](O)[C@@H](COP(=O)(O)OP(=O)(O)OP(=O)(O)O)O1.O=P(O)(O)OP(=O)(O)OP(=O)(O)OC[C@H]1O[C@@H](n2cc(F)c3ccsc3c2=S)C[C@@H]1O [FTPT3-IMO]	> 95
COc1cc2ccccc2cc1[C@H]1C[C@H](O)[C@@H](COP(=O)(O)OP(=O)(O)OP(=O)(O)O)O1.O=P(O)(O)OP(=O)(O)OP(=O)(O)OC[C@H]1O[C@@H](n2ccc3ccccc3c2=S)C[C@@H]1O [SICS-NaM]	> 95
C#Cc1cc(OC)c([C@H]2C[C@H](O)[C@@H](COP(=O)(O)OP(=O)(O)OP(=O)(O)O)O2)cc1F.O=P(O)(O)OP(=O)(O)OP(=O)(O)OC[C@H]1O[C@@H](n2ccc3ccsc3c2=S)C[C@@H]1O [TPT3-FEMO]	> 95
COc1cc(I)c(F)cc1[C@H]1C[C@H](O)[C@@H](COP(=O)(O)OP(=O)(O)OP(=O)(O)O)O1.O=P(O)(O)OP(=O)(O)OP(=O)(O)OC[C@H]1O[C@@H](n2ccc3ccsc3c2=S)C[C@@H]1O [TPT3-FIMO]	> 95
COc1cc2ccccc2cc1[C@H]1C[C@H](O)[C@@H](COP(=O)(O)OP(=O)(O)OP(=O)(O)O)O1.O=P(O)(O)OP(=O)(O)OP(=O)(O)OC[C@H]1O[C@@H](n2ccc3ccsc3c2=S)C[C@@H]1O [TPT3-NaM]	> 95
COc1cc(N=[N+]=[N-])ccc1[C@H]1C[C@H](O)[C@@H](COP(=O)(O)OP(=O)(O)OP(=O)(O)O)O1.O=P(O)(O)OP(=O)(O)OP(=O)(O)OC[C@H]1O[C@@H](n2ccc3ccsc3c2=S)C[C@@H]1O [TPT3-ZMO]	> 95
